Source: PMC4255804
Results are given in words; binding and its absence hold for the method and conditions named. Binding seen in cells or lysates may run through a third protein. A result given as binding can be weak or reduced; the word gives no strength.

T1: Caveolin-1 (Cav1), endogenous in rat intestinal epithelial cells (rat (endogenous in IEC-6)) (UniProt P41350)
T1 sequence: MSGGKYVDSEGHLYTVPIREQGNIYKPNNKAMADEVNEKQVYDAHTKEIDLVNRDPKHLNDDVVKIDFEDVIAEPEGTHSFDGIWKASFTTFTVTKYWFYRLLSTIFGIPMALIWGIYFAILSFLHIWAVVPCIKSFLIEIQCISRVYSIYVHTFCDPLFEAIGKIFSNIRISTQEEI


Assays:
[1] = molecular target: T1, Caveolin-1 (Cav1), endogenous in rat intestinal epithelial cells (rat (endogenous in IEC-6)); experiment: co-IP; whole-cell lysates in RIPA buffer (500 ug) of IEC-6, IEC-Cdx2L1, IEC-TRPC1 (also after siCav1 or C-siRNA), IEC-Cav1 and Null cells; IP with anti-Cav1 or anti-TRPC1 antibody (4 ug), protein A/G-PLUS-Agarose, 4 C; western blot for TRPC1 or Cav1
[2] = molecular target: TRPC1 stably overexpressed in IEC-6 cells (IEC-TRPC1); experiment: as above

binding [1]	binding [2]	Molecule
binds	–	TRPC1 stably overexpressed in IEC-6 cells (IEC-TRPC1)
–	binds	Caveolin-1 (Cav1), endogenous in rat intestinal epithelial cells (protein, UniProt P41350 1-178) MSGGKYVDSEGHLYTVPIREQGNIYKPNNKAMADEVNEKQVYDAHTKEIDLVNRDPKHLNDDVVKIDFEDVIAEPEGTHSFDGIWKASFTTFTVTKYWFYRLLSTIFGIPMALIWGIYFAILSFLHIWAVVPCIKSFLIEIQCISRVYSIYVHTFCDPLFEAIGKIFSNIRISTQEEI
